Data: patent publication US20260209347A1 (BIORAY PHARMACEUTICAL, published 2026)
Positions count from the first letter of the chain named. Results are given in words; binding and its absence hold for the method and conditions named. Some results given as binding are weak or reduced against the parent protein; the word gives no strength. One block for each binder: values may come before it.

Chains of the proteins cited; added tags and fusions are not shown. Lines headed by an entry give the natural chain unless they say otherwise; changes in a name come on top.
UniProt P26715: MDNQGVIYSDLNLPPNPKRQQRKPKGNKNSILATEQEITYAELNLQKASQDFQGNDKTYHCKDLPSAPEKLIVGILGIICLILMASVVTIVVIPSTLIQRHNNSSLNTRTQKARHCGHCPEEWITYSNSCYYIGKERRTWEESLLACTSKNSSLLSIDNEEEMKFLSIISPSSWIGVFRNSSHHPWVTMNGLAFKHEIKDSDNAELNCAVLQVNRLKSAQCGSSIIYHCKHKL
UniProt Q13241: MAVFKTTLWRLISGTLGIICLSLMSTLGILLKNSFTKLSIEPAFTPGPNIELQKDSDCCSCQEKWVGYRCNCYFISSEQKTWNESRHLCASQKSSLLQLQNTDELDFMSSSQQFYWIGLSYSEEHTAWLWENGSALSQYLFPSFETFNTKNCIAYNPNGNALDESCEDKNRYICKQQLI

Legend:
[1] = molecular target: human NKG2A/CD94 on cells (CHOK1-hNKG2A/CD94) (human) (UniProt P26715+Q13241); assay: FACS on human NKG2A overexpressing cell line
[2] = molecular target: T1, cyno NKG2A/CD94 on cells (CHOK1-cynoNKG2A/CD94) (cyno (Macaca fascicularis)) (UniProt Q68VD2+Q68VD4); assay: FACS on CHOK1-cynoNKG2A/CD94 cells
[3] = molecular target: T1, cyno NKG2A/CD94 on cells (CHOK1-cynoNKG2A/CD94) (cyno (Macaca fascicularis)); assay: FACS on cyno NKG2A overexpressing cells

binding [1]: binds
B1: hu-52VH-13/VL-11 (antibody, human IgG4 S228P, kappa, V domains shown)
VH: QVQLVQSGAEVKKPGASVKVSCKASGFNIQNTYLHWVRQAPGQGLEWMGRIDPANDNIKYVPKFQGRVTMTADTSTNTAYMELSSLRSEDTAVYYCTRHGLFYEGWFAYWGQGTLVTVSS
VL: DIQLTQSPSSLSASVGDRVTITCSVSSSISSSNLHWYQQKPGKAPKPLIYGTSNLASGVPSRFSGSGSGTDYTLTISSLQPEDAATYYCQQWSSYPYTFGQGTKLEIKR
notes: full-length humanized antibody; also called hu-52 humanized antibody

binding [1]: binds
B2: hu-52VH-13/VL-31 (antibody, human IgG4 S228P, kappa, V domains shown)
VH: B1 VH
VL: EIVLTQSPATLSLSPGERATLSCSVSSSISSSNLHWYQQKPGQAPRPLIYGTSNLASGIPARFSGSGSGTDYTLTISSLEPEDAAVYYCQQWSSYPYTFGQGTKLEIKR
notes: as for B1

binding [1]: binds
B3: hu-52VH-33/VL-21 (antibody, human IgG4 S228P, kappa, V domains shown)
VH: B1 VH with A16S, M70I
VL: B1 VL with S10T, D71E, E82D
notes: as for B1

binding [1]: binds
B4: hu-52VH-13/VL-21 (antibody, human IgG4 S228P, kappa, V domains shown)
VH: B1 VH
VL: B1 VL with S10T, D71E, E82D
notes: as for B1

binding [1]: binds
B5: hu-52VH-23/VL-31 (antibody, human IgG4 S228P, kappa, V domains shown)
VH: B1 VH with T76I, S85R, E89D
VL: B2 VL
notes: as for B1

binding [1]: binds
B6: hu-52VH-23/VL-21 (antibody, human IgG4 S228P, kappa, V domains shown)
VH: B1 VH with T76I, S85R, E89D
VL: B1 VL with S10T, D71E, E82D
notes: as for B1

binding [1]: binds
B7: hu-52VH-23/VL-11 (antibody, human IgG4 S228P, kappa, V domains shown)
VH: B1 VH with T76I, S85R, E89D
VL: B1 VL
notes: as for B1

binding [2]: binds
B8: cAb-52 (antibody, human IgG4 S228P, kappa, V domains shown)
VH: EVQLQQSVAELVRPGASVKLSCTASGFNIQNTYLHWVKQRPEQGLEWIGRIDPANDNIKYVPKFQGKATITADTSSNTAYLQLSSLTSEDTAIYYCTRHGLFYEGWFAYWGQGTLVTVST
VL: EIVLTQSPALMAASPGEKVTITCSVSSSISSSNLHWYQQKSGTSPKPWIYGTSNLASGVPVRFSGSGSGTSYSLTISSMEAEDAATYYCQQWSSYPYTFGSGTKLEIKR
notes: human-mouse chimeric antibody, human IgG4 constant region; also called antibody number 52; NKG2A chimeric antibody

binding [2]: binds
B9: cAb-17 (antibody, human IgG4 S228P, kappa, V domains shown)
VH: EVQLQQSVAELVRPGASVKLSCTASGFNIKNTYIDWVKQRPEQGLEWIGNIDPANGNTKYAPKFQGKATITADTSSNTAYVQLSSLTSEDTAIYYCARWGGWDVRFAYWGQGTLVTVSA
VL: DIKMTQSPSSMYASLGERVTITCKASQDINTYLSWFQQKPGKSPKTLIYRANRLVDGVPSRFSGSGSGQNYSLTISSLEYEDMGIYYCLQYDEFPLTFGAGTKLELKR
notes: human-mouse chimeric antibody, human IgG4 constant region; also called antibody number 17; NKG2A chimeric antibody

binding [2]: binds
B10: cAb-24 (antibody, human IgG4 S228P, kappa, V domains shown)
VH: EVQLQQSVAELVRPGASVKLSCTASGFNIQNTYMHWVKQRPEQGLEWIGRIDPANGNTKYAPKFQGKATITADTSSNTAYLQLSSLTSEDTAIYYCARYYDSRYGYWGQGTTLTVSS
VL: B9 VL with T31S, K45T, N70D, M83L, Y87F, L96W, A100G, L106I
notes: human-mouse chimeric antibody, human IgG4 constant region; also called antibody number 24; NKG2A chimeric antibody

binding [2]: binds
B11: cAb-33 (antibody, human IgG4 S228P, kappa, V domains shown)
VH: B9 VH with I34M, N50R, V81L, W99E, G101N, V104D, R105W, A107V
VL: DVLMTQTPLSLPVSLGDQASISCRSSQSIVHSNGNTYLEWFLQKPGQSPKLLIYKVSNRFSGVPDRFSGSGSGTDFTLKISRVEAEDLGVYYCFQGSHVPPTFGGGTKLEIKR
notes: human-mouse chimeric antibody, human IgG4 constant region; also called antibody number 33; NKG2A chimeric antibody

binding [2]: binds
B12: cAb-35 (antibody, human IgG4 S228P, kappa, V domains shown)
VH: B9 VH with I34M, N50R, Y60H, A72T, V81L
VL: B9 VL with T22N, K24Q, T31S, Y49H, N70D, Y91F
notes: human-mouse chimeric antibody, human IgG4 constant region; also called antibody number 35; NKG2A chimeric antibody

binding [2]: binds | binding [3]: binds
B13: cAb-43 (antibody, human IgG4 S228P, kappa, V domains shown)
VH: EVQLQQSVAELVRPGASVKLSCTASGFNIQNTYIHWVKQRPEQGLEWIGRIDPASGSTEYAPKFQGKATITADTSSNSGYLQLSSLTSEDTAIYYCARYGNFLYYYSMDYWGQGTSVTVSA
VL: DIVMTQAAPSVPVTPGESVSISCRSNKSLLHSNGNTYLYWFLQRPGQSPQLLIYRMSNLASGVPDRFSGSGSGTAFTLRISRVEAEDVGVYYCMQHLENPYTFGGGTKLEIKR
notes: human-mouse chimeric antibody, human IgG4 constant region; also called antibody number 43; NKG2A chimeric antibody

binding [2]: binds
B14: cAb-14 (antibody, human IgG4 S228P, kappa, V domains shown)
VH: EVQLQQSVAELVRPGASVKLSCTASGFNIKNTYIHWVKQRPEQGLEWIGRIDPANGNTKYAPKFQGKASIIVDTSSNTAYLQLSSLTSEDTAIYYCARYYASSPYYYNMDYWGQGTSVTVSS
VL: DIQMTQSPASLSVSVGETVTITCRASENIYSNLAWYQQKQGKSPQLLVYAATNLADGVPSRFSGSGSGTQYSLKINSLQSEDFGSYYCQHFWGTFTFGSGTKLEIKR
notes: human-mouse chimeric antibody, human IgG4 constant region; also called antibody number 14; NKG2A chimeric antibody

binding [2]: binds
B15: cAb-9 (antibody, human IgG4 S228P, kappa, V domains shown)
VH: EVQLQQSVAELVRPGASVKLSCTASGFNIQNTYMHWVKERPEQGLEWIGRIDPANGDTEFAPKFQGKATLTTDTSSNTAYLQLSSLTSEDTAIYYCGRERYFYGSRGFAYWGQGTLVTVSA
VL: DILMTQSPPSMSVSLGDTVSITCHASQGISSNIGWLQQKPGKSFKGLIYHGTNLEDGVPSRFSGSGSGADYSLTISSLESEDFADYYCVQYAQFPWTFGGGTKLEIKR
notes: human-mouse chimeric antibody, human IgG4 constant region; also called antibody number 9; NKG2A chimeric antibody
